Reference: publication PMC10950212, “Structure and antigenicity of the divergent human astrovirus VA1 capsid spike” (PLOS Pathogens, 2024)
No constants are given. Whether binding was seen depends on the method and setting. Binding seen in cells or lysates may run through a third protein. Some binding calls cover weakened binding; strength is not graded here.

Sequences of proteins named here, by UniProt entry; tags and fusion partners are left off. Residues count along the entry.
HAstV-VA1 capsid protein VP33 (Human astrovirus VA1 (gastrointestinal strain)) (C7BG48, residues 1-298): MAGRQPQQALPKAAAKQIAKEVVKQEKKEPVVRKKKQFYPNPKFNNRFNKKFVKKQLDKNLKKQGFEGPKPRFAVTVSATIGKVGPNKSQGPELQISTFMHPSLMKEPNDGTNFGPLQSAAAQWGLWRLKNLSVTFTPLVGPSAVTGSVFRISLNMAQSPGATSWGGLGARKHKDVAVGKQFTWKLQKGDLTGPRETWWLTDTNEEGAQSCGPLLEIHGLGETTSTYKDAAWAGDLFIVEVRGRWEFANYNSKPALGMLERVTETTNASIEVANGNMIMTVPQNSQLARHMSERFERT
HAstV-VA1 capsid protein VP38 (C7BG48, residues 348-690): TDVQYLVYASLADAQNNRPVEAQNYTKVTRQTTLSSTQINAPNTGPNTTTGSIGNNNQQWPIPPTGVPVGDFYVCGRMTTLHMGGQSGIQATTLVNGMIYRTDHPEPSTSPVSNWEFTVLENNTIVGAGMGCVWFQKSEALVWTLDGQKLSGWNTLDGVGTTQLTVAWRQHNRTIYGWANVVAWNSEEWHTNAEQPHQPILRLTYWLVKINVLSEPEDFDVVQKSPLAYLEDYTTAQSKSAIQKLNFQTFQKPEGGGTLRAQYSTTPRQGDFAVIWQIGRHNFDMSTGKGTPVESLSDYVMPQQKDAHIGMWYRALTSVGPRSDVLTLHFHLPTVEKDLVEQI

Molecular target: HAstV-VA1 capsid protein VP33 (Human astrovirus VA1 (gastrointestinal strain)) (UniProt C7BG48)
Test: co-sedimentation; virus particles from Caco-2 cells purified by CsCl isopycnic centrifugation; capsid proteins separated by SDS-PAGE, Coomassie, bands identified by LC-MS/MS

Substance: HAstV-VA1 capsid protein VP38 (from UniProt C7BG48 348-690) (domain or fragment)
- binding: binds
